The assay in a line: qHTS Assay for Lipid Storage Modulators in Drosophila S3 Cells.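 For cell number change: cells counted by Cell Tracker Red CMTPX staining in the red channel.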 Particulars: BODIPY lipid droplet fluorescence, 18-24 h; for cell number change: measured here: cell count max response, cells fed with added oleic acid. The method in brief:
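Laser-scanning cytometry quantifies lipid droplet accumulation (500–530 nm total intensity; droplet/cell object ratio) in oleic acid-fed (400 uM added) Drosophila S3 cells treated with a concentration series. 20 uM Triacsin C defined 100% inhibition.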

Where [1] appears, read: measured here: lipid fluorescence (Fed channel) AC50, cells fed with added oleic acid.
Setting [2] is: measured here: cell number channel AC50, cells fed with added oleic acid.

Each structure is given as a SMILES string. The list shows a part of the results. Shown are side measurements of this screen, not its main read-out; they come without a call. Compounds called inactive in the main read-out are mostly missing here. Words in brackets tell the shape of the fitted curve; partial curves, single points and poor fits give uncertain potencies.

By AC50 is commonly meant the midpoint of the concentration-response curve, whichever way the signal moves. Read a high AC50 as weaker potency. For `CC1CCN(S(=O)(=O)c2cccc(-c3cn4cc(Cl)ccc4n3)c2)CC1`, the cell number change stood at 0.0849%. Besides, the AC50 under setting [1] is 6.51 µM [rising, single point].

As to `CCC(C)(C)NC(=O)Cc1ccc(C)cc1`, the cell number change is 20.9%.

Take `Cc1cccc(NC(=S)N2CCN(c3cc(C)ccc3C)CC2)c1`: the cell number change was 6.11%. The AC50 under setting [1] was 29.1 µM [falling, single point].

On to `COC(=O)c1ccc(NC(=O)c2ccc(C)cc2)o1`, for which the cell number change was 22.3%. The concentration at half-maximal activity (AC50) under setting [1] was 16.4 µM [rising, partial curve].

Consider `O=C(NCCC1=CCCCC1)C1CCC(CNS(=O)(=O)c2ccccc2)CC1` (configuration not stated), for which the cell number change was found to be 34.8%. In addition, the concentration at half-maximal activity (AC50) under setting [2] was 16.4 µM [rising, single point].

`O=C(CCNC(=O)c1ccccc1Cl)NCCCSc1ccccc1`: the cell number change was 24%. For the same compound, the AC50 under setting [1] was 6.51 µM [falling, single point].

Take `Cn1c(SCC(=O)N/N=C/c2ccc([N+](=O)[O-])s2)nnc1-c1ccc(Cl)cc1`: the cell number change is -59.9%. The AC50 under setting [2] was 20.6 µM [falling, partial curve, poor fit]. Besides, the AC50 under setting [1] was 29.1 µM [falling, single point].

Take `COc1ccc(/C=N/NC(=O)CCc2nc3ccccc3[nH]2)cc1`: the cell number change came to 25.9%. Under setting [1], the concentration at half-maximal activity (AC50) was 8.2 µM [rising, partial curve].

For `CCC1C(=O)N=C(SCC(=O)Nc2ccc(C(=O)OC)cc2)NC1=O` (configuration not stated), the cell number change was 9.36%. In addition, the AC50 under setting [2] was 2.06 µM [rising, single point].

Take `O=Cc1c(NC2CCCCC2)c2ccccc2[nH]c1=O`: the cell number change was found to be 11.1%. Further, under setting [1], the AC50 is 29.1 µM [falling, single point].

Consider `O=C1CN(S(=O)(=O)c2ccc(Cl)cc2C(F)(F)F)CCN1`, for which the cell number change was 65%. Moreover, the AC50 under setting [2] is 29.1 µM [rising, single point]. The concentration at half-maximal activity (AC50) under setting [1] is 0.146 µM [falling, partial curve].

For the compound `CCOC(=O)C1=C(COC(=O)COc2cccc(C)c2C)NC(=O)NC1C` (configuration not stated), the cell number change is -22.1%. Under setting [1], the AC50 is 25.9 µM [rising, single point].

For the compound `CCc1c(C)sc(NC(=O)c2cc(-c3ccco3)on2)c1C#N`, the cell number change was found to be 5.21%. Moreover, under setting [1], the half-maximal activity concentration (AC50) was 18.4 µM [rising, single point].

In the case of `O=C(O)c1cc2c(ccc3ccccc32)o1`, under setting [1], the concentration at half-maximal activity (AC50) was 9.2 µM [rising, single point].

Take `COc1cc(CN(CC2CCCO2)C(=O)c2ccco2)cc(OC)c1OC` (configuration not stated): the AC50 under setting [1] was 0.13 µM [falling, partial curve, poor fit].

In the case of `CC1CCCCN1C(=O)C12CCC(C)(/C(=N/O)C1)C2(C)C` (configuration not stated), the cell number change was 19%. Moreover, the concentration at half-maximal activity (AC50) under setting [1] was 0.184 µM [falling, full curve, poor fit].

Take `CN(C)CCN(C(=O)C1CCN(S(=O)(=O)c2cccs2)CC1)c1nc2c(F)cccc2s1`: under setting [2], the half-maximal activity concentration (AC50) was 0.146 µM [rising, full curve, poor fit].

As for `COc1ccc(S(=O)(=O)N2CCN(C(=O)CCCN3C(=O)NC4(CCCC4)C3=O)CC2)cc1`, the cell number change was -13.5%. In addition, the AC50 under setting [1] was 0.731 µM [rising, single point].

Turning to `CCCSc1nc2sc3c(c2c(=O)n1-c1ccc(OC)cc1)CCN(C)C3`, the cell number change was 5.56%. In addition, the AC50 under setting [1] was 2.31 µM [rising, partial curve].

As to `Cc1cc(OC(=O)c2c(F)cc(F)cc2F)nc(C)n1`, the cell number change was -19%. Besides, under setting [2], the AC50 is 0.00651 µM [falling, full curve, poor fit].

As to `Cc1cccc(N(C(=O)CNC(=O)c2ccco2)C(C(=O)NCC2CCCO2)c2ccccc2)c1` (configuration not stated), the cell number change came out at 22.1%.

As to `Cc1ccc(NC(=O)CSc2nnc(COc3ccc(C#N)cc3)n2-c2ccccc2)cc1C`, the cell number change was -9.98%. In addition, under setting [1], the half-maximal activity concentration (AC50) was 0.366 µM [rising, full curve, poor fit].

Regarding `COc1ccc(N2CCN(c3oc(-c4ccc(OC)c(OC)c4)nc3C#N)CC2)cc1`, the cell number change came out at 5.6%.

Regarding `CC(C)NC(=O)NC(=O)COC(=O)c1cccc(OC(F)F)c1`, the cell number change came out at 28.7%.

`CN(c1ccc(C(=O)NCCSCc2ccccc2)cc1)S(=O)(=O)c1ccccc1`: the cell number change is -17.6%. Besides, the AC50 under setting [1] is 11.6 µM [falling, single point].

In the case of `COC(=O)CC1C(=O)NCCN1C(=O)c1ccc(Cl)cc1` (configuration not stated), the cell number change was -12.6%.

Consider `S=C(Nc1ccc(Cl)c(Cl)c1)N1CCN(c2ccccn2)CC1`, for which the cell number change stood at 23.8%. The AC50 under setting [2] was 0.00517 µM [rising, full curve, poor fit]. For the same compound, under setting [1], the AC50 was 29.1 µM [rising, single point].

As for `CCCCCCCc1c(C#N)c(N)[nH]c(=S)c1C#N`, the cell number change is 32.7%. Further, under setting [1], the AC50 is 3.26 µM [falling, single point].

For the compound `COc1cccc(-c2nnc3sc(C4CCCCC4)nn23)c1`, the cell number change stood at 4.29%. Moreover, under setting [1], the AC50 was 29.1 µM [rising, partial curve].

Take `Cn1c(/C=C/c2ccc(Cl)cc2)nc2ccccc2c1=O`: the cell number change came to 0.275%. For the same compound, under setting [1], the AC50 was 29.1 µM [falling, single point].

`Fc1ccccc1N1CCN(c2cnc3ccccc3n2)CC1`: the cell number change stood at 38.2%. Also, the AC50 under setting [2] was 25.9 µM [rising, single point].

In the case of `CN(Cc1cccc(F)c1)C(=O)c1ccc(NS(=O)(=O)c2ccc3[nH]c(=O)[nH]c3c2)cc1`, the cell number change was determined as 50%. Moreover, the AC50 under setting [2] is 29.1 µM [rising, single point].

In the case of `COC(=O)C1=C(C)NC(C)=C(C(=O)OC)C1C(=O)OCc1nc2cc(C(=O)OC)ccc2c(=O)[nH]1`, the cell number change was 33.9%. The AC50 under setting [2] is 23.1 µM [rising, single point].

Consider `CC(C)c1nnc(NC(=O)C2CCCN(C(=O)Nc3ccc(F)cc3)C2)s1` (configuration not stated), for which the AC50 under setting [1] is 0.058 µM [falling, partial curve, poor fit].

For the compound `CN(C)c1nc(Cl)nc(NCCOc2ccccc2)n1`, the concentration at half-maximal activity (AC50) reads like this: under setting [2], 0.0366 µM [rising, full curve, poor fit]; under setting [1], 5.8 µM [rising, partial curve, poor fit].

As for `Cc1cc(NC(=O)CSc2nccn2-c2ccc(Cl)cc2)no1`, the cell number change is -8.03%. Besides, under setting [1], the half-maximal activity concentration (AC50) is 0.82 µM [falling, single point].

`O=C(Nc1ccc(F)cc1)c1ccccc1NC(=O)C1CC=CCC1C(=O)O` (configuration not stated): the cell number change turned out to be 9.07%. The half-maximal activity concentration (AC50) under setting [2] is 0.184 µM [rising, full curve, poor fit].

On to `O=C(Nc1nnc(-c2cccnc2)o1)c1ccccc1Cl`, for which the cell number change amounted to 14.4%. Further, the AC50 under setting [2] was 6.51 µM [rising, partial curve, poor fit].

On to `CCC(C)(C)C1CCc2c(sc(NC(=O)c3ccoc3C)c2C(N)=O)C1` (configuration not stated), for which the cell number change stood at 22.2%. Also, the half-maximal activity concentration (AC50) under setting [2] is 0.092 µM [rising, full curve, poor fit].

Source of the values: PubChem BioAssay AID2685 (National Center for Advancing Translational Sciences (NCATS), 2010).
